# According to PMC8428225 (Cancers, 2021):
# Test system: H3K27me3 in Pfeiffer cells
# Assay: H3K27 trimethylation assay
# Format: cell-based
# Details: Homo sapiens, 72 h, 3 days, Mean ± SD
# Method: After incubation with the testing compound, H3K27 trimethylation in cells was examined with H3K27me3 Cellular Assay Kit (Cisbio, 62KC3PAE). IC50 value was calculated using GraphPad Prism by plotting the log(compound) concentrations versus percent inhibition of H3K27me3.
structure (smiles),measurement,value
"CCN(c1cc(-c2ccc(CN3CCOCC3)cc2)cc(C(=O)NCc2c(C)cc(C)[nH]c2=O)c1C)C1CCOCC1 [EPZ-6438, reference compound]",IC50,4.13 ± 0.59 nM
